Results are given in words; binding and its absence hold for the method and conditions named. Binding seen in cells or lysates may run through a third protein. Some binding calls cover weakened binding; strength is not graded here. For some of these results: Sequences can lack the tags named with a protein.
T1: NEK9 (source not told: hit of the mass spectrometry analysis; partner in the co-IPs of Fig. 3G, H) (UniProt Q8TD19)
T1 sequence: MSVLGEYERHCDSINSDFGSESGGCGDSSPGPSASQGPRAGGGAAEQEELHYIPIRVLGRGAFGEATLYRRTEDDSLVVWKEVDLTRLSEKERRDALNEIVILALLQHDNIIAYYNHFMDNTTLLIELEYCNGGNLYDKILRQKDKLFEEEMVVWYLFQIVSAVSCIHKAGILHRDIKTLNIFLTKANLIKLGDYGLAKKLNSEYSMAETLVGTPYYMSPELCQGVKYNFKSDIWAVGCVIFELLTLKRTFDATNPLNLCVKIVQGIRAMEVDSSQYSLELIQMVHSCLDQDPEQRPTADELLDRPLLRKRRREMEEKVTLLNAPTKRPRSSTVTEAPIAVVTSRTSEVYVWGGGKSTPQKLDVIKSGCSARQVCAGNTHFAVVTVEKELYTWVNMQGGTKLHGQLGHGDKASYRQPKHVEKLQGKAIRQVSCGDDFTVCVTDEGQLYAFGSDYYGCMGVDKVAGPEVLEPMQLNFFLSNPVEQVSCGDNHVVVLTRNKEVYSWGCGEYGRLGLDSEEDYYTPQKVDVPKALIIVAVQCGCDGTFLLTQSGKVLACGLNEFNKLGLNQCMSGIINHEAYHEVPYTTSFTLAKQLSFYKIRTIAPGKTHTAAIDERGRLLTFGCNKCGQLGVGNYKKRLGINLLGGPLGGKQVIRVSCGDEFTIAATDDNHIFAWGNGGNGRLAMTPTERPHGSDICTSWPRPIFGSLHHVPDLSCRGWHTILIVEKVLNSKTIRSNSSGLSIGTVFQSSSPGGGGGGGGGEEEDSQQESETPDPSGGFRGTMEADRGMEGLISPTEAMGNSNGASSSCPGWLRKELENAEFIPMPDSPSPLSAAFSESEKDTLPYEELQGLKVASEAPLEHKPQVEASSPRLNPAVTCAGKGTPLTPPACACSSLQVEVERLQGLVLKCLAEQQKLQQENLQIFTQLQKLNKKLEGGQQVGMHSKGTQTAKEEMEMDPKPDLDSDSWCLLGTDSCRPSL

Sequences of proteins named here, by UniProt entry; tags and fusion partners are left off. Residues count along the entry.
UniProt Q9Y6N7, residues 26-1651: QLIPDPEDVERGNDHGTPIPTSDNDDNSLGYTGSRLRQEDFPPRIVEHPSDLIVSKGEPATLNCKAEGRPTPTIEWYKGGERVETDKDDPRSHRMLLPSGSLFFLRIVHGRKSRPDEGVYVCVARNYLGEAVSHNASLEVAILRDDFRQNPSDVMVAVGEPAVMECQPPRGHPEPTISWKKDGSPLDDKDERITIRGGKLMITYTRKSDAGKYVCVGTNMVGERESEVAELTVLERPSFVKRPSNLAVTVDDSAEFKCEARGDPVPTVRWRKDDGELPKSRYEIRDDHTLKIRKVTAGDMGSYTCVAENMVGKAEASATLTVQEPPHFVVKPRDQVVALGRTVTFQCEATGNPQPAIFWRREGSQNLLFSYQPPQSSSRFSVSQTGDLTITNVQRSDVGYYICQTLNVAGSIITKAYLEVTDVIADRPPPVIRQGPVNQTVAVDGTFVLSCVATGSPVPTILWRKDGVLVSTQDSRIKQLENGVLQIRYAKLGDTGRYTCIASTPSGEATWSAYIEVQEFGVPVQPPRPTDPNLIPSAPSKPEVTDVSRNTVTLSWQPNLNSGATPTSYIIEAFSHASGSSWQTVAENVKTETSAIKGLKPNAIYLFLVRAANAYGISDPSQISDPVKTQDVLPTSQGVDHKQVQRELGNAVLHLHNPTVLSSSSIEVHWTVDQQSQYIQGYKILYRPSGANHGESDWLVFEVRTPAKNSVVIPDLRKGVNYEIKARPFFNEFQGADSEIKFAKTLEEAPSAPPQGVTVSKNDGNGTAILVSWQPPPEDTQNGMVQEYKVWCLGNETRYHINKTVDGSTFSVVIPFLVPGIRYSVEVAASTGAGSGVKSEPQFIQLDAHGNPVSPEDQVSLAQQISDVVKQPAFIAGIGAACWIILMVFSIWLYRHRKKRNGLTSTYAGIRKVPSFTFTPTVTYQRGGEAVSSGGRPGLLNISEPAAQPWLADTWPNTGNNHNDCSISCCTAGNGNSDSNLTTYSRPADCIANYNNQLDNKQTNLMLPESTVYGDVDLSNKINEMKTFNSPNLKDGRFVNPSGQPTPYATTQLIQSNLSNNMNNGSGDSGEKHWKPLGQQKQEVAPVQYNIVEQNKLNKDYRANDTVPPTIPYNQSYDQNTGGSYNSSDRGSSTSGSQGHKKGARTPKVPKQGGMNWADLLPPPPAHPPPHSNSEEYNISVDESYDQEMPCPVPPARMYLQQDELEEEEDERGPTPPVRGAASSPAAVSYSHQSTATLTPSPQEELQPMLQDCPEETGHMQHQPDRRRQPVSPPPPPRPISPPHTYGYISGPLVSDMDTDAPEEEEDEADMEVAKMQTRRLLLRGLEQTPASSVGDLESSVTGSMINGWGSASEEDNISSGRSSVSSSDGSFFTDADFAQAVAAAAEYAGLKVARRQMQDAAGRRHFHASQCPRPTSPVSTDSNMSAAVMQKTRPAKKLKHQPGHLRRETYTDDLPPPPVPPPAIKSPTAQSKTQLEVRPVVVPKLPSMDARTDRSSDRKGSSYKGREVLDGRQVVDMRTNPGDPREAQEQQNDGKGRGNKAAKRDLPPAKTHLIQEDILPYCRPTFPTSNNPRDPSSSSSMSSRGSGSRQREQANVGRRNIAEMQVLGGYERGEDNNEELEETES
UniProt Q14247: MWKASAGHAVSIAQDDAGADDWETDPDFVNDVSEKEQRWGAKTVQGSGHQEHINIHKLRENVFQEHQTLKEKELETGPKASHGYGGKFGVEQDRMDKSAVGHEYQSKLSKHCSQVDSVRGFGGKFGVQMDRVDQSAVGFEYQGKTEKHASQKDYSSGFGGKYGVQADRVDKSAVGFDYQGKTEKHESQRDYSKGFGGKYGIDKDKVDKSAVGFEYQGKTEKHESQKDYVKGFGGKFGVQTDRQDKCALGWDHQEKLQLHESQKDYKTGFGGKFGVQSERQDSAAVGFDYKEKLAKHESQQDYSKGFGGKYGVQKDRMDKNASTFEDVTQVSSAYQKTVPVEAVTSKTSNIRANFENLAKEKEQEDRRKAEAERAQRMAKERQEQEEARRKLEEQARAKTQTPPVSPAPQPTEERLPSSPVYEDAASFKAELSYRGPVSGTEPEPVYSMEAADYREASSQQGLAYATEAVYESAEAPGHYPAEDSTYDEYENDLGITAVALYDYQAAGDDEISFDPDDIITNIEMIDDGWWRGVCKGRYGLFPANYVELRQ
UniProt Q13263: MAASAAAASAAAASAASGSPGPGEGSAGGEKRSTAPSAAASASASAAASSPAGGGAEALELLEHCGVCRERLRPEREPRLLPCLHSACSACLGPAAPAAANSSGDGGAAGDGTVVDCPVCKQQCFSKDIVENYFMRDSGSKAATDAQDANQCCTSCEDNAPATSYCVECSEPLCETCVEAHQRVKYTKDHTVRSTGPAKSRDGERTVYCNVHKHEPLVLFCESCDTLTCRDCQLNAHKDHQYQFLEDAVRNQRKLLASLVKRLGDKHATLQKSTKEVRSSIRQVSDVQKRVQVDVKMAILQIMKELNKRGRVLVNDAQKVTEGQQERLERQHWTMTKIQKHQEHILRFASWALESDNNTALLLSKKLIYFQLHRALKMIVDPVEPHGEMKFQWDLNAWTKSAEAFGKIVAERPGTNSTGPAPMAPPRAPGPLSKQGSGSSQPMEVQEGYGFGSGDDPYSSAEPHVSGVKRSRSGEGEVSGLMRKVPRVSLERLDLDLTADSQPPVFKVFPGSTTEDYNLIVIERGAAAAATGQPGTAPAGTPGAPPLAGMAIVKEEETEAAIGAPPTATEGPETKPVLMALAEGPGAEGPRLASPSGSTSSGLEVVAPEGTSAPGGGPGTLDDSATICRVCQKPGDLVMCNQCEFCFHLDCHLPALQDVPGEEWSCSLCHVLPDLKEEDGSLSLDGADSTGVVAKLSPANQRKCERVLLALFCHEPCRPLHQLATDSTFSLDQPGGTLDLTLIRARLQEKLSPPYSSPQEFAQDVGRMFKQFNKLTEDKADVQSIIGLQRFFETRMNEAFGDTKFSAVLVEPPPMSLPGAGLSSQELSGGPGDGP

B1: NEK9, endogenous (enzyme, UniProt Q8TD19 1-979)
chain: T1 sequence
B2: Flag-NEK9 (enzyme, UniProt Q8TD19 1-979)
chain: T1 sequence

Columns and labels:
[1] = molecular target: T1, NEK9 (source not told: hit of the mass spectrometry analysis; partner in the co-IPs of Fig. 3G, H); assay: co-IP; NEK9 with TRIM28 or CTTN in AGS and MKN45 cells
[2] = molecular target: roundabout guidance receptor 1 (ROBO1), endogenous (human (endogenous in GC cells AGS, MKN45)) (UniProt Q9Y6N7); assay: co-IP; endogenous ROBO1 and NEK9 in GC cells; without or with pre-treatment with SLIT2 (100 ng/ml, 24 hours)
[3] = molecular target: HA-ROBO1 (the full-length) (UniProt Q9Y6N7); assay: co-IP; GC cell lysates co-transfected with Flag-NEK9 and HA-ROBO1 (the full-length or deletion mutants)

Molecule | binding [1] | also measured
cortactin (CTTN) (from UniProt Q14247 1-550) | binds | –
tripartite motif containing 28 (TRIM28) (from UniProt Q13263 1-835) | binds | –
B1 | – | binding [2]: binds
B2 | – | binding [3]: binds

From publication PMC10344862
